Reference: PubChem BioAssay AID1347426 (Functional Genomics Laboratory (NCATS/FGL), 2020)
Hit rate of the full screen: of about 31,000 sequences, about 1,400 (4.5%) were called active.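 How the source made its calls: active means median seed-adjusted z-score above 1 or below -1; inactive means the rest.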 The list shows a part of the results.

Assay: Novel Modifiers of Survival Motor Neuron (SMN) Protein: Gene Identification via Genome-wide siRNA Screen;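 further: luminescence tracks full-length SMN protein made from the SMN2 reporter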
Conditions: HEK293T SMN2-luciferase reporter, siRNA knockdown, 72 h; actives lie on both sides
Method in brief: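 siRNA screen, 10418 genes ×3 siRNAs; 1 pmol/well, lipid reverse transfection into HEK293T SMN2-luc reporter line. 72 h, 37 °C, 5% CO2; ONE-Glo readout. Data: neg-ctrl normalized, log10, MAD; hit = MAD >1.0 or < -1.0.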

Sequence	median seed-adjusted z-score
GGCUGACCUCAUCUGCUUUTT against VKORC1	inactive: -0.754
UGCUGCAUGUUCUUUGUUUTT against CCL24	inactive: 0
CAAUUUUGCAGGCAACUUUTT against SCYE1	inactive: 0.437
GCAUCCAUCAUUCGACUUATT against NPAS3	inactive: -0.0316
CGGAAUUUGUUGCUCCAGATT against DAPK2	inactive: 0.268
GCAGGCUACCGGAAAUCUATT against EHD4	inactive: 0.333
UGAUUUCGGUGCUCAAGUATT against SLC26A9	inactive: 0.223
CAGACAAGGAGGAAUUUAATT against ZSCAN10	inactive: 0
AGAAGAAGCUUGGAUGACATT against ZNF22	inactive: 0.47
GAAUCAACAAGAUUGGGAATT against CBS	inactive: -0.0696
AGAGCGUGCGUCCACAAAATT against MATN4	inactive: -0.262
CAGGGAGCCUUAAACUUAUTT against CDC25C	inactive: 0.256
CAGUCUGCCUUGGAUCAAATT against CPA3	inactive: 0.192
ACCCUUUCGUGGAACAAGATT against NTNG2	inactive: 0.403
CCUCAGAGCUUGGUCGGAATT against TCOF1	inactive: 0.819
UACUCCACCUUGAAAGAUATT against TBC1D13	inactive: 0.33
CCAUCGCUUUCAGCAGACATT against DLX6	inactive: 0.0275
CCAACAAGCAGAAUCAGAATT against MPRIP	inactive: 0.238
GCCUUUCAGCAUGCGGUUATT against GDPD1	inactive: 0.527
GAAGUUCACUUUAGAUAUUTT against SPINT4	inactive: 0.354
AAUUCUACGAGUCCAAGUATT against GPS1	inactive: 0.205
CAAUGCUUUCGGCUCCAAATT against TBX4	inactive: 0.968

An excerpt of the results above, for reference:
Sequence	median seed-adjusted z-score
CCAACAAGCAGAAUCAGAATT against MPRIP	inactive: 0.238
GCCUUUCAGCAUGCGGUUATT against GDPD1	inactive: 0.527
GAAGUUCACUUUAGAUAUUTT against SPINT4	inactive: 0.354

Following part

Sequence	median seed-adjusted z-score
GGGACGAGAUCAACGAGAATT against KIF5A	inactive: -0.348
AGAGUGUCCAGAUUGAGAATT against SLC5A10	inactive: 0.669
ACACCUGCCUGGUAGAGAATT against FGFR4	inactive: 0.0825
GUAAAGCGUGGAAUCGUUATT against ANPEP	inactive: 0.252
GGACGAACCUUGACAGGAUTT against GATM	inactive: 0.182
GCCUAGGUGCCGAAUGGAATT against SOX14	inactive: -0.296
CCACCAACGAAUACGUCUATT against PRKCSH	inactive: -0.0512
GGUGCCUUCUUAUGACCUUTT against STAT6	inactive: 0.28
GCAAAGAUAGCGAGAAAUATT against TBX1	inactive: -0.744
CGAUGUUGUGAUAAGGUUATT against ST3GAL5	inactive: 0.11
CAGUGAAUUUGGUAAGGUUTT against SLC9A11	inactive: -0.12
GGAUGUAAAUUUCGAGUUUTT against PMS2	inactive: -0.162
GGUAGUCAAUCAGUACCAATT against FAM48A	inactive: -0.506
CCAUGGAUGAGACUCCGUATT against PPP1R10	active: 1.41
GGAUAACACUAAGUUUAGATT against SFRS1	active: -1.66
GAAACACUCGUUAUCGAAATT against ATP13A2	inactive: 0.461
GACCAUCUCUCAGAAGUUUTT against ODF1	inactive: 0.912
CCCAUACACUGGUCAGACATT against ILDR1	inactive: -0.318
CUGUUUGGGUUGAUCAACATT against PEX1	inactive: 0.227
CACCCUUUCUAAACAUGAUTT against ZNF33B	inactive: -0.279
GCAAGAUUCCAUUCACGUUTT against ORC2L	inactive: -0.101
GAUCGUUGAUGAGAAAGUUTT against LARP1	inactive: 0.251

Sequence	median seed-adjusted z-score
CAUUCAGCCUUGAUAUUGATT against GPR107	inactive: 0
GGCUGUUGGUAUGAUCCUATT against SLC15A2	inactive: 0.322
ACAGCUCACUGAACCCUGUTT against ADRA2B	inactive: 0.00853
GGAAGAACAGGUUCCGGAATT against ABCC12	inactive: 0.204
GAAUUUGCCUGUCUAAAAUTT against NR2E1	inactive: 0.559
GAGUAAACCUCGAAACCGATT against MAP3K13	inactive: -0.121
GCUGGAAUUUGUUACGCAATT against MTAP	inactive: -0.0621
GGAUCCUAAUUGUCAUCAUTT against B3GAT2	inactive: 0.33
CAGCCUCACCAAGCACAAATT against ZNF358	inactive: 0.359
AUCGACUUCUGGAACAUAATT against KCNC2	inactive: 0.3
GGCAAACGAGUGUGCUUCATT against FAM47B	inactive: -0.0631
GGAUAUUCUUCUCCGCUUATT against ACSL4	inactive: -0.0582
CGGAGACCACGUUUCAAAATT against TERT	inactive: -0.698
GUAUGGUGAUGACCUAGAATT against SNW1	inactive: 0.148
CAGCUGCAAUUCUAGCUAATT against RETSAT	active: -1.7
CGCAGACCAACAAGACUUCTT against DTX2	inactive: 0.0597
CCAGCAAAGUUUGACCAAATT against ZBTB20	inactive: -0.521
CACUAAUGCUUAUCAAUAATT against POLD4	inactive: 0.225
CGAUAACUGUAAUCCUGUUTT against ZDHHC7	inactive: 0.0962
GUUACUUUGUGACAAAUGATT against HS3ST4	inactive: 0.284
GGGCGAUCUUGACAGGAAATT against PPARG	inactive: -0.0309
GGAACAUACUGGACCUGGUTT against PKD2L1	inactive: 0.445

Sequence	median seed-adjusted z-score
GGAUCCAUCUGGUUACAAUTT against LIG1	inactive: 0.722
GGAGUUAAGAAUAUUAUGATT against VAMP8	inactive: -0.184
GCCUUAUGAUGGAAGAGAUTT against EYA2	inactive: 0.111
CUGUCAAUGUUAUUACUCUTT against TSG101	active: 1.48
GCUGCAUUCGCGAUUCUAUTT against CIB2	inactive: 0.569
UGUAUACAGUAACAACAUUTT against FAM12A	inactive: 0.08
GCACCUUCCUGCUAAGAUUTT against STAT3	inactive: 0
GCACUAAGGUGAAGAGUAATT against MTMR7	inactive: -0.207
CGGAAGAGUUUUUCGACUATT against BTRC	inactive: -0.0819
GCACAAGACAUACGAUUUUTT against CHST10	inactive: 0.115
CUCUCGAUCUGCUCACUGATT against CCRN4L	inactive: -0.572
CAACAUCUCAGAUGCUUUUTT against ASNA1	inactive: 0.357
CCUGGAGACCGGUAUCUUUTT against LRIT1	inactive: -0.611
GAGAACACCUCAUCCCAUATT against CCIN	inactive: 0.0472
CACUGUCAAUGGAUGAGCATT against RBMS2	inactive: -0.918
GGUCCUAACAAAAUCUUGATT against CD96	inactive: 0.461
GUUUGAUGCUAAAAAGUUUTT against EEF1G	inactive: -0.206
ACAUUGAACGUCCCACGUATT against TUBA3E	inactive: -0.35
CAGGCCCAAUUGUUAUCUATT against TRIM42	inactive: -0.153
CGUAAUAAAUUGUCGAAAATT against EML4	inactive: 0.958
CCAUAAACAAGUUAUUCAATT against LDHC	inactive: 0.537
GAAGAGUGUCUGCAAUUCATT against PSMB6	inactive: -0.579

Sequence	median seed-adjusted z-score
GGCUGUUUGUUCGCAAGCATT against SCD5	inactive: -0.167
CCUUUAUUCGUGUUGCAUATT against ZNF571	inactive: 0.175
GAUCCAUAGUACACGAAUATT against ADAM7	inactive: -0.0638
AGAACACGUUGGAAGUGUATT against MGST3	inactive: -0.0509
CUGUAUCUCUAAUCCCUGUTT against KRT33A	inactive: -0.107
GGAAACCUCUGGACCUCUATT against ARID1A	active: -1.14
CGUCCACUCCUUCUCCAAATT against MEST	inactive: -0.0503
GGACCCAGUAUUUCAGGAATT against SFXN4	inactive: -0.174
GGAGACUUACUACCUAUAATT against PARD6B	inactive: 0.315
GGAAUACAGGAGCACCUCATT against TTC16	inactive: 0
GCAUUGAGAUGUUCCACAATT against TUFM	active: 1.07
GGAUUACAGAGCCCAAUAATT against PTPN20A	inactive: 0
GGUCAAGCCUGACAGCAAATT against CDC2L6	inactive: -0.31
CCAUUGACAUCGAGCCUGATT against GPX1	inactive: -0.0529
GAGCGAGUCUGAUGGGAAUTT against SIX5	inactive: 0
GAAGGACCCAUGAUGCAAATT against EVPL	inactive: -0.146
CAUUCGGAGAAGUCGCAAATT against DDX59	inactive: -0.859
AAACACCAAUAGUGUCUAATT against VAPB	inactive: 0.254
GGGAAGUCGUUUAACCAUATT against ZNF8	inactive: 0.97
GAAUAGAGUUGUUCGGAAUTT against VCP	inactive: -0.808
